In PubChem BioAssay AID2265 (National Center for Advancing Translational Sciences (NCATS), 2010):
Inconclusive results, whose numbers are uncertain, are shown with a selection of clear calls. A potency beside an inconclusive call is a rough fit, not a confirmed value. The source made the active and inactive calls. Calls follow the shape of the dose curve; as a rule, active = well fitted inhibition curve with a large enough effect; inconclusive = small, poorly fitted or top-dose-only effect; inactive = flat fitted curve, though single readings scatter.

Each molecule was assayed against Luciferin 4-monooxygenase (Photuris pensylvanica) (UniProt Q27757) (assay: Secondary assay for Inhibitors of Human Pyruvate Kinase M2 isoform: FLuc Counterscreen). Details: Kinase-Glo firefly luciferase, luminescence, 8 min; series mostly up to 57.5 µM; activity, negative = inhibition: at the top concentration.
Method: NIH Chemical Genomics Center [NCGC] Matthew G. Vander Heiden, M.D., Ph.D. [Harvard Medical School, 77 Avenue Louis Pasteur, Boston, MA 02115] MLPCN Grant: 1 R03 MH085679-01 NCGC Assay Overview: Luciferase (Kinase-Glo, Promega Corporation) was assayed for its ability to generate light using ATP and luciferin as substrates. The ATP concentration in the assay (10 uM) was within the linear range of enzyme activity for the assay conditions used. This assay was used as an counter screen for human pyruvate kinase M2 isoform.
NCGC Assay Protocol Summary: Four uL of substrate mix (final concentration, 50 mM imidazole pH 7.2, 50 mM KCl, 7 mM MgCl2, 10 uM ATP, 0.01% Tween 20, 0.05% BSA) was dispensed into white 1536 well plates. Twenty-three nL of compound was delivered by a pin tool and 2 uL of luciferase detection mix (Kinase-Glo, Promega)) was added. Following 8-minute incubation at ambient temperature, luminescence was measured by a ViewLux (Perkin Elmer) at 5 seconds exposure/plate.

Question: For Cc1ccc(-n2[nH]c(C)c(/C=N/c3ccccn3)c2=O)cc1, which Potency is on record?
Answer: The Potency was inconclusive: 32.6 µM [falling, partial curve].

Question: For COc1ccc(-c2cn3ccccc3n2)cc1OC, which Potency is on record?
Answer: Its Potency is inconclusive: 16.3 µM [falling, partial curve].

Question: For COc1ccc(C(=O)Nc2cccc(OC)c2)cc1, which Potency is on record?
Answer: Its Potency is inconclusive: 16.3 µM [falling, partial curve].

Question: How did the Potency turn out when Cc1cc(NC(=O)c2ccccc2)ncc1NC(=O)c1ccco1 was run?
Answer: The Potency was inconclusive: 10.3 µM [falling, partial curve].

Question: For CCOc1ccc(OCC(=O)Nc2nccs2)cc1, which Potency is on record?
Answer: The Potency was inconclusive: 10.3 µM [falling, partial curve].

Question: Cc1ccc(Nc2c(-c3ccsc3)nc3c(C)cccn23)cc1 was tested. Which “activity, negative = inhibition” value did it give?
Answer: The value was inactive: -0.816%.

Question: How did the “activity, negative = inhibition” value turn out when Cc1ccc(Nc2c(-c3ccc(C)o3)nc3ccccn23)cc1 was run?
Answer: Its value is inactive: -0.235%.

Question: Which Potency does the source give for Cc1ccnc(NC(=O)c2ccc3c(c2)OCO3)c1 here?
Answer: The Potency was active: 13 µM.

Question: For O=C(NC(=O)c1ccccc1)Nc1ccccn1, which Potency is on record?
Answer: The Potency was active: 5.17 µM.

Question: For Cc1ccc(Nc2c(-c3ccc(C)s3)nc3cccc(C)n23)cc1, which “activity, negative = inhibition” value is on record?
Answer: The value was inactive: 0.371%.

Question: Cc1ccc2nc(-c3ccc(C)o3)c(Nc3ccc(F)cc3)n2c1 was tested. Which “activity, negative = inhibition” value did it give?
Answer: The value was inactive: -0.327%.

Question: With COc1ccc(-c2nc3cccc(C)n3c2Nc2ccc(C)cc2)cc1 as the molecule, how does the “activity, negative = inhibition” value read?
Answer: Its value is inactive: -3.24%.
